Results are given in words; binding and its absence hold for the method and conditions named. Some binding calls cover weakened binding; strength is not graded here.
Biological target: cynomolgus CB2 (cynomolgus monkey) (UniProt G7NVV5)
Experiment: flow cytometry on B-cells in cynomolgus whole blood

Sequences of proteins named here, by UniProt entry; tags and fusion partners are left off.
UniProt G7NVV5: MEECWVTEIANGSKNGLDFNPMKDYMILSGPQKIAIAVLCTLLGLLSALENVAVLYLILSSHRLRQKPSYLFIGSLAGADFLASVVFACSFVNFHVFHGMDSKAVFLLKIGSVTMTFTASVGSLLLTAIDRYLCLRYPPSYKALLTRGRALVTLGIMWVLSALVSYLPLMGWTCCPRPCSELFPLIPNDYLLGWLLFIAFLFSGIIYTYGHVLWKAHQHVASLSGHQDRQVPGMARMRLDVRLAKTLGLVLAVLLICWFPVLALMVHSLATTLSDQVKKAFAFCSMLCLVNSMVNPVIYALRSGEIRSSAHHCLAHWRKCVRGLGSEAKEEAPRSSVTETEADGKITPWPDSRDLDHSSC

B1: Anti-CB2 clone 1/622 (antibody, IgG3, V domains shown)
VH: EVQLQQSGPELVKPGASVKISCKTSGYTFTEYTMHWVRQSHGKSLEWIGGIDRYNGDTYYNQKFKDKATLTVDRSSSTAYMELRSLTSEDSAVYFCARNGAMDYWGQGISVTVSS
VL: DVVMTQTPLSLPVSLGDQASISCRSSQSLVHSNGNTYLHWFLQKPGQSPKLLIYKVSIRFSGVPDRFSGSGSGTDFTLKISRVEAEDLGVYFCSQSTHVPPLTFGAGTKLELKR
- binding: binds
